Here are results for two sequences from publication PMC3534229.

By UniProt entry, the sequences of proteins in these tests, tags left out.
UniProt P08047, whole entry: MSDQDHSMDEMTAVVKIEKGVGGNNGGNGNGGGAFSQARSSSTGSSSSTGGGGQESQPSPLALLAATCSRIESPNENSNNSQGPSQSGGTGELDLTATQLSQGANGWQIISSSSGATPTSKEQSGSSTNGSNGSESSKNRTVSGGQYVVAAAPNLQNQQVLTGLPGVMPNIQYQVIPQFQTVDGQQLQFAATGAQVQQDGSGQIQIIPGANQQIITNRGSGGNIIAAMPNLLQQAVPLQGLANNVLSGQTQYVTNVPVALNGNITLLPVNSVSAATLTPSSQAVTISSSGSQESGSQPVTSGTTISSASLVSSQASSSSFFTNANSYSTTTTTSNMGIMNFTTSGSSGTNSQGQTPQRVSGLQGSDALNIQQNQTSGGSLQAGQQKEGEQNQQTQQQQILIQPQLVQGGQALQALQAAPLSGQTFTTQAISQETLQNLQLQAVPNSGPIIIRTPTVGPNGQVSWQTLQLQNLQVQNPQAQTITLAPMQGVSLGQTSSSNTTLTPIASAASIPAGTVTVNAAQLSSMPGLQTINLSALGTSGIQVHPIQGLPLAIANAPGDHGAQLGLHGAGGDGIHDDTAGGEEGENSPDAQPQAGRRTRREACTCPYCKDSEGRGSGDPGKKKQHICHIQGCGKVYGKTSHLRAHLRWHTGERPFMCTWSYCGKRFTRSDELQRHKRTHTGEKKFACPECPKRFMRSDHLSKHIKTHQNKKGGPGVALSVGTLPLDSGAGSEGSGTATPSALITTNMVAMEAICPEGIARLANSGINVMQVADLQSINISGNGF

For at least one entry, the source does not settle the construct or the ends of the probe. Results from cells or extracts need not show a direct contact. For some assays here: No signal at the amounts used counts as a negative.

The target in data set [1] is Sp1 (UniProt P08047). In words: competition with a labelled probe. The conditions noted are these: 50-fold molar excess unlabeled mutant did not compete for the Sp1 band; HeLa nuclear extract; preincubation with competitor or antibody 1 h at 4°C, then labeled probe 30 min at room temperature; salt and pH not given (cited method); protein in an extract; label: none (unlabeled competitor).

Data set [2] concerns the target Sp1 (UniProt P08047). In words: EMSA supershift. The note with it: anti-Sp1 supershifts the band, band stronger in extract of 32°C than 37°C cells, competed by 50-fold excess unlabeled wt; HeLa nuclear extract; preincubation with competitor or antibody 1 h at 4°C, then labeled probe 30 min at room temperature; salt and pH not given (cited method); protein in an extract; label: 32P. (In EMSA bound probe runs differently from free probe, usually more slowly.)

“TCAGCTGTCCAAGCCTCCTAGT (double strand) [MCRE mutant competitor (mt)]”: in data set [1], the binding result is “no binding”.

Regarding “TCAGCTGTCCCCGCCTCCTAGT (double strand) [MCRE probe (wt)]”, in data set [2], the binding result is on record as “binds”.
